Values of other authors, collected in US20110321180A1, “COMPOSITIONS AND METHODS TO GENERATE PILOSEBACEOUS UNITS” (University of Southern California, priority 2008, published 2011).
At least one structure is not confirmed: it was looked up by name or label, or the drawing left a doubt.

Test system: BMP receptors, type I: ALK2, ALK3 and ALK6
Details: blocks BMP-mediated SMAD1/5/8 phosphorylation

## c1cc(-c2cnn3cc(-c4ccc(OCCN5CCCCC5)cc4)cnc23)ccn1 [Dorsomorphin]
  inhibition of BMP type I receptors: selectively inhibit
